From patent US20100298285A1, “Biclycloheteroaryl Compounds as P2x7 Modulators and Uses Thereof” (priority 2006, published 2010)
The name of at least one read-out is uncertain.

System: IL-1β release, THP-1 cells
Experiment: IL-1β release assay in differentiated THP-1 cells stimulated with BzATP (Example 9)
Format: cell-based, human
Settings: BzATP 250 uM, "+" symbols = inhibition at 0.3 μM, "*" symbols = inhibition at 0.1 μM
Protocol: THP-1 cells (ATCC Cat # 285-IF-100) are plated in 96 well plates at a concentration of 200,000 cells per well and allowed to differentiate in RPMI-1640 media (ATCC Cat # 30-2001) containing 10% FBS, 100 IU/mL penicillin, 100 ug/mL streptomycin, 100 ng/mL LPS and 100 ng/mL IFN-γ for 16 hours. Following differentiation, the cells are treated for an additional 2 hours in RPMI-1640 media containing 100 IU/mL penicillin, 100 ug/mL streptomycin and fresh LPS at 100 ng/mL. The cells are then pretreated for 30 minutes with the compound of interest at the appropriate concentration in RPMI media containing 100 IU/mL penicillin, 100 ug/mL streptomycin. Following the pretreatment 2′,3′-O-(4-benzoylbenzoyl)-adenosine 5′-triphosphate (Sigma Aldrich Cat # B6396) is added to a final concentration of 250 uM and the cells are incubated for an additional 45 minutes. 30 uL of cell supernatant is then collected and IL-1β levels determined via ELISA (R&D systems Cat. # HSLB50) according to manufacturer's recommendations using the Tecan Safire plate reader. Background adjusted IL-1β levels of drug treated and non-treated cells are used to calculate the percent inhibition.
The following compounds have been or can be prepared according to the synthetic methods described above. For the purpose of Table 1 below, activity of each compound, which can be determined using the IL-1β assay method described in Example 9, is expressed as follows: […]
The compounds set forth in Table 1 were tested for activity in a cellular model as described herein. Specifically, cells were pretreated with differing amounts of the compound under test and released IL-1β determined as in Example 9, above. Measurements were made and IC50 values, presented in Table 2, below, were determined by fitting the data to a four parameter logistic equation using GraphPad Prism software (GraphPad Software, Inc). The equation may be expressed by the following formula:
Y=Bottom+(Top−Bottom)/(1+10̂((Log EC50−X)*HillSlope))
Where X is the logarithm of concentration, Y is the response and Y starts at Bottom and goes to Top with a sigmoid shape.

For `O=C(Cc1cccc(C(F)(F)F)c1F)Nc1c(Cl)ccc2c1CCN(C(=O)c1nccs1)C2` [Compound 3198], the “IL-1β% Inhib. @ 0.3 or 0.1 μM” value was “+ (compound exhibited 0-25% inhibition at 0.3 μM concentration)”.

For `CC(Oc1ccccc1)C(=O)N1CCc2c(ccc(Cl)c2NC(=O)Cc2cccc(C(F)(F)F)c2F)C1` (stereo not drawn) [Compound 3199], the “IL-1β% Inhib. @ 0.3 or 0.1 μM” value was “+ (compound exhibited 0-25% inhibition at 0.3 μM concentration)”.

For `Cc1ccc2c(c1NC(=O)Cc1ccc(C(F)(F)F)c(F)c1)CCN(C(=O)c1c(Cl)cccc1Cl)C2` [Compound 3200], the “IL-1β% Inhib. @ 0.3 or 0.1 μM” value was “++ (compound exhibited 26-50% inhibition at 0.3 μM concentration)”.

`CC(=O)N1CCc2c(ccc(C)c2NC(=O)Cc2ccc(C(F)(F)F)c(F)c2)C1` [Compound 3201] was tested, and the “IL-1β% Inhib. @ 0.3 or 0.1 μM” value was “++++ (compound exhibited 76% or greater inhibition at 0.3 μM concentration)”.

With `Cc1ccc2c(c1NC(=O)Cc1ccc(C(F)(F)F)c(F)c1)CCN(C(=O)c1ccccc1)C2` [Compound 3202] the “IL-1β% Inhib. @ 0.3 or 0.1 μM” value was “+ (compound exhibited 0-25% inhibition at 0.3 μM concentration)”.

`CCC(=O)N1CCc2c(ccc(C)c2NC(=O)Cc2ccc(C(F)(F)F)c(F)c2)C1` [Compound 3203] was tested, and the “IL-1β% Inhib. @ 0.3 or 0.1 μM” value was “++++ (compound exhibited 76% or greater inhibition at 0.3 μM concentration)”.

`Cc1ccc2c(c1NC(=O)Cc1ccc(C(F)(F)F)c(F)c1)CCN(C(=O)Cc1ccccc1)C2` [Compound 3204] was tested, and the “IL-1β% Inhib. @ 0.3 or 0.1 μM” value was “+ (compound exhibited 0-25% inhibition at 0.3 μM concentration)”.

For `Cc1ccc2c(c1NC(=O)Cc1ccc(C(F)(F)F)c(F)c1)CCN(C(=O)c1ccc(Cl)cc1)C2` [Compound 3205], the “IL-1β% Inhib. @ 0.3 or 0.1 μM” value was “+ (compound exhibited 0-25% inhibition at 0.3 μM concentration)”.

In the case of `Cc1cccc(C(=O)N2CCc3c(ccc(C)c3NC(=O)Cc3ccc(C(F)(F)F)c(F)c3)C2)c1` [Compound 3206], the “IL-1β% Inhib. @ 0.3 or 0.1 μM” value is reported as “+ (compound exhibited 0-25% inhibition at 0.3 μM concentration)”.

`Cc1ccc2c(c1NC(=O)Cc1ccc(C(F)(F)F)c(F)c1)CCN(C(=O)CCC1CCCC1)C2` [Compound 3207] was tested, and the “IL-1β% Inhib. @ 0.3 or 0.1 μM” value was “+++ (compound exhibited 51-75% inhibition at 0.3 μM concentration)”.

In the case of `Cc1ccc2c(c1NC(=O)Cc1ccc(C(F)(F)F)c(F)c1)CCN(C(=O)C1CCCC1)C2` [Compound 3208], the “IL-1β% Inhib. @ 0.3 or 0.1 μM” value is reported as “++++ (compound exhibited 76% or greater inhibition at 0.3 μM concentration)”.

In the case of `COc1ccc(OC)c(CC(=O)N2CCc3c(ccc(C)c3NC(=O)Cc3ccc(C(F)(F)F)c(F)c3)C2)c1` [Compound 3209], the “IL-1β% Inhib. @ 0.3 or 0.1 μM” value is reported as “++ (compound exhibited 26-50% inhibition at 0.3 μM concentration)”.

`COCC(=O)N1CCc2c(ccc(C)c2NC(=O)Cc2ccc(C(F)(F)F)c(F)c2)C1` [Compound 3210] was tested, and the “IL-1β% Inhib. @ 0.3 or 0.1 μM” value was “+ (compound exhibited 0-25% inhibition at 0.3 μM concentration)”.

In the case of `Cc1ccc2c(c1NC(=O)Cc1ccc(C(F)(F)F)c(F)c1)CCN(C(=O)Cc1ccc(F)cc1)C2` [Compound 3211], the “IL-1β% Inhib. @ 0.3 or 0.1 μM” value is reported as “+++ (compound exhibited 51-75% inhibition at 0.3 μM concentration)”.

With `Cc1ccc2c(c1NC(=O)Cc1ccc(C(F)(F)F)c(F)c1)CCN(C(=O)c1ccc(Cl)c(Cl)c1)C2` [Compound 3213] the “IL-1β% Inhib. @ 0.3 or 0.1 μM” value was “+ (compound exhibited 0-25% inhibition at 0.3 μM concentration)”.

`COc1cc(OC)cc(C(=O)N2CCc3c(ccc(C)c3NC(=O)Cc3ccc(C(F)(F)F)c(F)c3)C2)c1` [Compound 3214] was tested, and the “IL-1β% Inhib. @ 0.3 or 0.1 μM” value was “+ (compound exhibited 0-25% inhibition at 0.3 μM concentration)”.

`Cc1ccc2c(c1NC(=O)Cc1ccc(C(F)(F)F)c(F)c1)CCN(C(=O)C(C)C)C2` [Compound 3215] was tested, and the “IL-1β% Inhib. @ 0.3 or 0.1 μM” value was “++++ (compound exhibited 76% or greater inhibition at 0.3 μM concentration)”.

`Cc1ccc2c(c1NC(=O)Cc1ccc(C(F)(F)F)c(F)c1)CCN(C(=O)CCc1ccccc1)C2` [Compound 3216] was tested, and the “IL-1β% Inhib. @ 0.3 or 0.1 μM” value was “+ (compound exhibited 0-25% inhibition at 0.3 μM concentration)”.

`Cc1ccc2c(c1NC(=O)Cc1ccc(C(F)(F)F)c(F)c1)CCN(C(=O)COc1ccccc1)C2` [Compound 3217] was tested, and the “IL-1β% Inhib. @ 0.3 or 0.1 μM” value was “++ (compound exhibited 26-50% inhibition at 0.3 μM concentration)”.

`Cc1ccc2c(c1NC(=O)Cc1ccc(C(F)(F)F)c(F)c1)CCN(C(=O)c1ccc(F)cc1)C2` [Compound 3219] was tested, and the “IL-1β% Inhib. @ 0.3 or 0.1 μM” value was “+ (compound exhibited 0-25% inhibition at 0.3 μM concentration)”.

In the case of `Cc1ccc2c(c1NC(=O)Cc1ccc(C(F)(F)F)c(F)c1)CCN(C(=O)C(C)(C)C)C2` [Compound 3220], the “IL-1β% Inhib. @ 0.3 or 0.1 μM” value is reported as “++++ (compound exhibited 76% or greater inhibition at 0.3 μM concentration)”.

For `CCC(C(=O)N1CCc2c(ccc(C)c2NC(=O)Cc2ccc(C(F)(F)F)c(F)c2)C1)c1ccccc1` (stereo not drawn) [Compound 3221], the “IL-1β% Inhib. @ 0.3 or 0.1 μM” value was “+ (compound exhibited 0-25% inhibition at 0.3 μM concentration)”.

With `Cc1ccc2c(c1NC(=O)Cc1ccc(C(F)(F)F)c(F)c1)CCN(C(=O)CC(C)C)C2` [Compound 3222] the “IL-1β% Inhib. @ 0.3 or 0.1 μM” value was “+ (compound exhibited 0-25% inhibition at 0.3 μM concentration)”.

`Cc1ccc2c(c1NC(=O)Cc1ccc(C(F)(F)F)c(F)c1)CCN(C(=O)COCc1ccccc1)C2` [Compound 3224] was tested, and the “IL-1β% Inhib. @ 0.3 or 0.1 μM” value was “++ (compound exhibited 26-50% inhibition at 0.3 μM concentration)”.

`Cc1ccc2c(c1NC(=O)Cc1ccc(C(F)(F)F)c(F)c1)CCN(C(=O)c1ccc(C#N)cc1)C2` [Compound 3225] was tested, and the “IL-1β% Inhib. @ 0.3 or 0.1 μM” value was “+ (compound exhibited 0-25% inhibition at 0.3 μM concentration)”.

In the case of `Cc1ccc2c(c1NC(=O)Cc1ccc(C(F)(F)F)c(F)c1)CCN(C(=O)C1CC1c1ccccc1)C2` (stereo not drawn) [Compound 3226], the “IL-1β% Inhib. @ 0.3 or 0.1 μM” value is reported as “++ (compound exhibited 26-50% inhibition at 0.3 μM concentration)”.

In the case of `Cc1ccc2c(c1NC(=O)Cc1ccc(C(F)(F)F)c(F)c1)CCN(C(=O)c1ccc(Cl)cc1Cl)C2` [Compound 3227], the “IL-1β% Inhib. @ 0.3 or 0.1 μM” value is reported as “+ (compound exhibited 0-25% inhibition at 0.3 μM concentration)”.

With `Cc1ccc2c(c1NC(=O)Cc1ccc(C(F)(F)F)c(F)c1)CCN(C(=O)CC1CCCC1)C2` [Compound 3228] the “IL-1β% Inhib. @ 0.3 or 0.1 μM” value was “+ (compound exhibited 0-25% inhibition at 0.3 μM concentration)”.

With `Cc1ccc2c(c1NC(=O)Cc1ccc(C(F)(F)F)c(F)c1)CCN(C(=O)Cc1ccc(Cl)cc1)C2` [Compound 3230] the “IL-1β% Inhib. @ 0.3 or 0.1 μM” value was “++ (compound exhibited 26-50% inhibition at 0.3 μM concentration)”.

In the case of `Cc1ccc(F)c(C(=O)N2CCc3c(ccc(C)c3NC(=O)Cc3ccc(C(F)(F)F)c(F)c3)C2)c1Cl` [Compound 3231], the “IL-1β% Inhib. @ 0.3 or 0.1 μM” value is reported as “+ (compound exhibited 0-25% inhibition at 0.3 μM concentration)”.

`Cc1ccc2c(c1NC(=O)Cc1ccc(C(F)(F)F)c(F)c1)CCN(C(=O)c1nn(-c3ccccc3)nc1C)C2` [Compound 3232] was tested, and the “IL-1β% Inhib. @ 0.3 or 0.1 μM” value was “+ (compound exhibited 0-25% inhibition at 0.3 μM concentration)”.

For `Cc1ccc2c(c1NC(=O)Cc1ccc(C(F)(F)F)c(F)c1)CCN(C(=O)c1ccc(F)cc1F)C2` [Compound 3234], the “IL-1β% Inhib. @ 0.3 or 0.1 μM” value was “+++ (compound exhibited 51-75% inhibition at 0.3 μM concentration)”.

For `Cc1ccccc1C(=O)N1CCc2c(ccc(C)c2NC(=O)Cc2ccc(C(F)(F)F)c(F)c2)C1` [Compound 3235], the “IL-1β% Inhib. @ 0.3 or 0.1 μM” value was “+ (compound exhibited 0-25% inhibition at 0.3 μM concentration)”.

With `Cc1ccc2c(c1NC(=O)Cc1ccc(C(F)(F)F)c(F)c1)CCN(C(=O)c1cc(F)ccc1F)C2` [Compound 3236] the “IL-1β% Inhib. @ 0.3 or 0.1 μM” value was “+ (compound exhibited 0-25% inhibition at 0.3 μM concentration)”.

With `Cc1ccc2c(c1NC(=O)Cc1ccc(C(F)(F)F)c(F)c1)CCN(C(=O)c1ccccc1F)C2` [Compound 3237] the “IL-1β% Inhib. @ 0.3 or 0.1 μM” value was “++ (compound exhibited 26-50% inhibition at 0.3 μM concentration)”.

With `Cc1ccc2c(c1NC(=O)Cc1ccc(C(F)(F)F)c(F)c1)CCN(C(=O)c1cccc(Cl)c1Cl)C2` [Compound 3238] the “IL-1β% Inhib. @ 0.3 or 0.1 μM” value was “+ (compound exhibited 0-25% inhibition at 0.3 μM concentration)”.

`Cc1cc(C(=O)N2CCc3c(ccc(C)c3NC(=O)Cc3ccc(C(F)(F)F)c(F)c3)C2)no1` [Compound 3239] was tested, and the “IL-1β% Inhib. @ 0.3 or 0.1 μM” value was “+ (compound exhibited 0-25% inhibition at 0.3 μM concentration)”.

In the case of `Cc1ccc2c(c1NC(=O)Cc1ccc(C(F)(F)F)c(F)c1)CCN(C(=O)c1cc(C)n(C)n1)C2` [Compound 3240], the “IL-1β% Inhib. @ 0.3 or 0.1 μM” value is reported as “++ (compound exhibited 26-50% inhibition at 0.3 μM concentration)”.

With `Cc1ccc2c(c1NC(=O)Cc1ccc(C(F)(F)F)c(F)c1)CCN(C(=O)/C=C/c1ccccc1)C2` [Compound 3241] the “IL-1β% Inhib. @ 0.3 or 0.1 μM” value was “++ (compound exhibited 26-50% inhibition at 0.3 μM concentration)”.

For `Cc1ccc(C(=O)N2CCc3c(ccc(C)c3NC(=O)Cc3ccc(C(F)(F)F)c(F)c3)C2)cc1` [Compound 3242], the “IL-1β% Inhib. @ 0.3 or 0.1 μM” value was “++++ (compound exhibited 76% or greater inhibition at 0.3 μM concentration)”.

With `COc1ccccc1C(=O)N1CCc2c(ccc(C)c2NC(=O)Cc2ccc(C(F)(F)F)c(F)c2)C1` [Compound 3243] the “IL-1β% Inhib. @ 0.3 or 0.1 μM” value was “+ (compound exhibited 0-25% inhibition at 0.3 μM concentration)”.

In the case of `CC(=O)N1CCC(C(=O)N2CCc3c(ccc(C)c3NC(=O)Cc3ccc(C(F)(F)F)c(F)c3)C2)CC1` [Compound 3245], the “IL-1β% Inhib. @ 0.3 or 0.1 μM” value is reported as “+ (compound exhibited 0-25% inhibition at 0.3 μM concentration)”.
